{"source": "patent US20180245048A1", "about": "“METHODS AND COMPOSITIONS FOR EXPANSION AND DIFFERENTIATION OF SKELETAL MUSCLE STEM CELLS OR PROGENITOR CELLS” (AGENCY FOR SCIENCE, TECHNOLOGY AND RESEARCH, priority 2015, published 2018)", "key": {"[1]": {"tested_on": "induced pluripotent stem cell-derived myotubes", "assay": "qPCR screen of myogenic differentiation markers, 70 small molecules", "format": "cell-based, human", "method": "FIG. 9 is a heat map showing the levels of MYOG, MYHC, MYH3, MYH8, MYH7, MYH2, MYH1 expression in induced pluripotent stem cell-derived myotubes after screening with 70 different small molecules related to the metabolomics findings, compared to an untreated control group.\nThus carnitine to facilitate fatty acid oxidation, the fatty acids linoleate, arachidonate and palmitate to fuel fatty acid oxidation were tested. It was also tested whether statin inhibitors of steroid synthesis, such as fluvastatin, and steroids like testosterone or progesterone could boost human myotube differentiation. Against this background, a variety of other small molecule drugs and metabolites were also screened, including OxPhos inhibitors and vitamins, to test their effects on myotube differentiation. A qPCR screen was then performed for various myogenic differentiation markers on human induced pluripotent stem cell-derived myoblasts exposed to these 70 conditions (FIG. 9)."}, "[2]": {"tested_on": "human induced pluripotent stem cell-derived myoblasts", "assay": "qPCR screen of lineage markers (OCT3/4, NCAM, AFP, PAX7), 70 small molecules", "format": "cell-based", "settings": "vs untreated control (FIG. 3)", "method": "FIG. 3 is a heat map showing the levels of OCT3/4, NCAM, AFP and PAX7 mRNA expression in induced pluripotent stem cell-derived myoblasts after screening with 70 different small molecules related to the metabolomics findings, compared to an untreated control group.\nThus, the adenylyl cyclase agonist Forskolin was tested to induce cAMP synthesis, and cobalamin was administered to see if these compounds boosted the expansion of human myoblasts. It was also tested whether glutamine, hypoxanthine and thymidine—all of which are rate-limiting for nucleotide synthesis—could boost human myoblast expansion. Against this background, a variety of other small molecule drugs and metabolites were screened, including amino acids and fatty acids, thereby testing their effects on myoblast expansion. A real-time polymerase chain reaction (qPCR) screen was then performed for various lineage markers (pluripotency marker OCT3/4, neuromuscular marker NCAM, endoderm marker AFP, muscle marker Pax7) on human induced pluripotent stem cell-derived myoblasts exposed to these 70 conditions (FIG. 3)."}}, "note": "At least one structure is not confirmed: it was looked up by name or label, or the drawing left a doubt."}
{"molecule": "CC(C)n1c(/C=C/C(O)CC(O)CC(=O)O)c(-c2ccc(F)cc2)c2ccccc21", "note": "(stereo not drawn) [fluvastatin, reference compound]", "values": [{"measurement": "MyoD, MyoG and MYHC (myosin heavy chain) expression", "setting": "[1]; each individually, during drug-induced myogenesis from human iPSC (FIG. 9)", "result": "specifically increase"}, {"measurement": "expression of differentiated myocyte markers MYOG, MYHC, MYH3, MYH8 and adult myotube markers MYH7, MYH2, MYH1", "setting": "[1]; screen, vs untreated control (FIG. 9)", "result": "increase expression"}]}
{"molecule": "C=C[C@@]1(C)CC(=O)[C@]2(O)[C@@]3(C)[C@@H](O)CCC(C)(C)[C@@H]3[C@H](O)[C@H](OC(C)=O)[C@@]2(C)O1", "note": "[forskolin, reference compound]", "values": [{"measurement": "PAX7 mRNA expression", "setting": "[2]; during FGF/Wnt/Notch-induced myogenesis", "result": "specifically increase"}, {"measurement": "AFP (endoderm marker) mRNA expression", "setting": "[2]", "result": "without increasing"}, {"measurement": "NCAM (neuromuscular marker) mRNA expression", "setting": "[2]", "result": "increase"}, {"measurement": "OCT3/4 (pluripotency marker) mRNA expression", "setting": "[2]", "result": "without increasing"}]}
